# Laboratory results: paper PMC12718132
# No constants are given. Whether binding was seen depends on the method and setting. For some assays here: Binding seen in cells or lysates may run through a third protein. Sequences can lack the tags named with a protein.
# T1: PTH1R C-terminally tagged with monomeric NeonGreen (PTH1R^mNG) (human), Q03431
# T1 chain: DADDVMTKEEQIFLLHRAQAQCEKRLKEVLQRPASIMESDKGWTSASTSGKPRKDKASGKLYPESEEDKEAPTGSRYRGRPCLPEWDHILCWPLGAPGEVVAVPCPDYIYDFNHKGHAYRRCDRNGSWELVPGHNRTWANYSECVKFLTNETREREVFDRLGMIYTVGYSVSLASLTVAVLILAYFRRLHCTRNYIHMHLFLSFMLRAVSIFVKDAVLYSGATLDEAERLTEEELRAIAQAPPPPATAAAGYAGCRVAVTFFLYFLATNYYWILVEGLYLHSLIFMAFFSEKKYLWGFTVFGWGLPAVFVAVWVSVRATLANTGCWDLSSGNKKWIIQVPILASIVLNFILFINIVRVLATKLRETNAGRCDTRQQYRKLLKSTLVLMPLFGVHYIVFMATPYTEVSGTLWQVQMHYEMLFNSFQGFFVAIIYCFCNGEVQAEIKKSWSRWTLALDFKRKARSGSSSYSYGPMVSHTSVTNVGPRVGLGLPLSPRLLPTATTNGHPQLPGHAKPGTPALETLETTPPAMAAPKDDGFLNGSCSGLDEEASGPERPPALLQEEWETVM
# T2: PTH1R C-terminally tagged with either YFP (PTHR^YFP) or cyan fluorescent protein (PTHR^CFP) (human), Q03431
# T2 chain: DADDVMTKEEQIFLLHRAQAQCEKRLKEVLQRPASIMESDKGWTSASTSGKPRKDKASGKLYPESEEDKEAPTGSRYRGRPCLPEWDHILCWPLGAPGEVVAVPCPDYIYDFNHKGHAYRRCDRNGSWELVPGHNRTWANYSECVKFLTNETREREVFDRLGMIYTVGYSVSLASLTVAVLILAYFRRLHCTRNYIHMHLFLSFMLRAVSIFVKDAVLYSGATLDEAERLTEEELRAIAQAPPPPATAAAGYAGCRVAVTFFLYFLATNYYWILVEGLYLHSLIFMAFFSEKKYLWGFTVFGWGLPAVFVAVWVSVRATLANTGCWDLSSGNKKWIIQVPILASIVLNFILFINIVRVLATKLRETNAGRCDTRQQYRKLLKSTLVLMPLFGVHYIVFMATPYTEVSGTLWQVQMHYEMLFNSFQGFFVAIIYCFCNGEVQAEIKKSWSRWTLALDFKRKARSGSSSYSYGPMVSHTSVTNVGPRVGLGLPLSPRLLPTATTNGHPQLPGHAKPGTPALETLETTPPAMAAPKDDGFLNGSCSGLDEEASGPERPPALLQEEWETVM
# Assays:
# [1] = target: T1, PTH1R C-terminally tagged with …; assay: single-molecule TIRF brightness analysis; PTH1R^mNG at ~0.06 detections/um^2 in the plasma membrane of living HEK293 cells; brightness compared with monomeric, dimeric and trimeric mNG controls fused to the PH domain of phospholipase Cdelta1; unliganded and with PTH, PTHrP, LA-PTH, PTH^R25C or PTH^dimer; repeated on a second microscope; conditions: remark: other sources report otherwise
# [2] = target: T2, PTH1R C-terminally tagged with either …; assay: FRET or BRET; overexpressed CFP- and YFP-tagged constructs in live cells; FRET efficiency by donor recovery after acceptor bleaching; conditions: remark: other sources report otherwise
Binder,binding [1],binding [2]
"PTH1R C-terminally tagged with monomeric NeonGreen (PTH1R^mNG), Q03431 27-593 (receptor) DADDVMTKEEQIFLLHRAQAQCEKRLKEVLQRPASIMESDKGWTSASTSGKPRKDKASGKLYPESEEDKEAPTGSRYRGRPCLPEWDHILCWPLGAPGEVVAVPCPDYIYDFNHKGHAYRRCDRNGSWELVPGHNRTWANYSECVKFLTNETREREVFDRLGMIYTVGYSVSLASLTVAVLILAYFRRLHCTRNYIHMHLFLSFMLRAVSIFVKDAVLYSGATLDEAERLTEEELRAIAQAPPPPATAAAGYAGCRVAVTFFLYFLATNYYWILVEGLYLHSLIFMAFFSEKKYLWGFTVFGWGLPAVFVAVWVSVRATLANTGCWDLSSGNKKWIIQVPILASIVLNFILFINIVRVLATKLRETNAGRCDTRQQYRKLLKSTLVLMPLFGVHYIVFMATPYTEVSGTLWQVQMHYEMLFNSFQGFFVAIIYCFCNGEVQAEIKKSWSRWTLALDFKRKARSGSSSYSYGPMVSHTSVTNVGPRVGLGLPLSPRLLPTATTNGHPQLPGHAKPGTPALETLETTPPAMAAPKDDGFLNGSCSGLDEEASGPERPPALLQEEWETVM",no binding,
"PTH1R C-terminally tagged with either YFP (PTHR^YFP) or cyan fluorescent protein (PTHR^CFP), Q03431 27-593 (receptor) DADDVMTKEEQIFLLHRAQAQCEKRLKEVLQRPASIMESDKGWTSASTSGKPRKDKASGKLYPESEEDKEAPTGSRYRGRPCLPEWDHILCWPLGAPGEVVAVPCPDYIYDFNHKGHAYRRCDRNGSWELVPGHNRTWANYSECVKFLTNETREREVFDRLGMIYTVGYSVSLASLTVAVLILAYFRRLHCTRNYIHMHLFLSFMLRAVSIFVKDAVLYSGATLDEAERLTEEELRAIAQAPPPPATAAAGYAGCRVAVTFFLYFLATNYYWILVEGLYLHSLIFMAFFSEKKYLWGFTVFGWGLPAVFVAVWVSVRATLANTGCWDLSSGNKKWIIQVPILASIVLNFILFINIVRVLATKLRETNAGRCDTRQQYRKLLKSTLVLMPLFGVHYIVFMATPYTEVSGTLWQVQMHYEMLFNSFQGFFVAIIYCFCNGEVQAEIKKSWSRWTLALDFKRKARSGSSSYSYGPMVSHTSVTNVGPRVGLGLPLSPRLLPTATTNGHPQLPGHAKPGTPALETLETTPPAMAAPKDDGFLNGSCSGLDEEASGPERPPALLQEEWETVM",,no binding
